# In PubChem BioAssay AID1347423 (Functional Genomics Laboratory (NCATS/FGL), 2020):
# Among all 52,000 sequences or so, about 210 (0.4%) were called active.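 Rule for the calls: active = gene whose silencing raises cell survival under the drug, median off-target-corrected z-score across its silencing RNAs 2 or more; inactive = the rest.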 This is one part of the list.
# Test: Resistance to Poly (ADP-Ribose) Polymerase inhibitor: Gene Identification via Genome-wide siRNA Screen
# Conditions: mouse BRCA2 R2336H ES cells, olaparib, CellTiter-Glo viability; active compounds read high
# Method in brief: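 Genome-wide siRNA screen (3 siRNAs/gene, 20 nM) in mouse ES cells carrying hypomorphic BRCA2 R2336H; olaparib 500 nM added 48 h post-transfection, CellTiter-Glo viability 72 h later. Normalized to plate-median negative control; MAD z-scores, gene median, seed-adjusted.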
row,Sequence,z-score
1,GGGAGCAUCAUGUGAAGAATT against Dnajc5b,inactive: -1.47
2,GCUGAACGAUGACUAUCCCTT against Cryba4,inactive: 0.859
3,CCGUGUCAUCUUGAAAAUUTT against Mtrr,inactive: -1.03
4,GAAAAGUGCACCAUCAGCCTT against Ly6g5b,inactive: -0.493
5,CGGUGAUCAAUCAUUGUAATT against Tas2r113,inactive: 0.579
6,GAUGCUCUCUGCUCUGAGATT against C030016D13Rik,inactive: -0.831
7,GGUGUCCAGCAUUUACAUCTT against Agtr2,inactive: -0.366
8,CGACCACAGAUAUAAAUUUTT against Tbx5,inactive: 0.988
9,GGAUGCCUGAGUGCUACAUTT against Lsm4,inactive: -0.892
10,CCUUGAAUAACUGUAUGGUTT against 4833442J19Rik,inactive: -0.659
11,CGACAAUCGACAAUCGUGCTT against Acta1,inactive: -0.455
12,GGAGACACCAGACCAACAATT against LOC432825,inactive: -0.634
13,CGUACAUGUCACCUGCUAATT against Them2,inactive: -0.267
14,GGAUAACUAGCAUUUCCCATT against Ninj2,inactive: 0.806
15,GACGAUUCUCUGUUGGUGUTT against Hcrt,inactive: -0.437
16,GGUCGAUGGUGCUCUGAAGTT against Spry3,inactive: -0.264
17,GGGAUGUCUUGGAACAUGCTT against Gm191,inactive: -1.09
18,GGUGUAAGGCUGUUGUAUUTT against Cmkor1,inactive: 1.63
19,GCUCUUCUGUCCAAAGAUGTT against Pim3,inactive: -0.132
20,GGAUCUUCAAGGUUAACCATT against BC006705,inactive: 0.373
21,GGAGAUACAAAUUUAAGAGTT against Ttrap,inactive: -0.476
22,GAUACUUGGCUCCUAGAAGTT against Olfr803,inactive: -1.11
23,GGCUGCUACUGACAGAUUATT against Fgd6,inactive: -0.0207

# 2 consecutive records out of the list so far:
row,Sequence,z-score
4,GAAAAGUGCACCAUCAGCCTT against Ly6g5b,inactive: -0.493
5,CGGUGAUCAAUCAUUGUAATT against Tas2r113,inactive: 0.579

# The list goes on:

row,Sequence,z-score
1,GGACUUUCGAAGUAAGAUGTT against 5730437N04Rik,inactive: 1.61
2,GCUGUGGACGGACUCUAUATT against Dhodh,inactive: 0.538
3,GUGGUUAUCCUGUUUUUUGTT against Olfr1273,inactive: 0.488
4,GGGAAGUUUUAUGGUUGAUTT against Rad51c,inactive: -0.0808
5,GGAGAGUGGCAUUACCUAUTT against Mrg2,inactive: 0.902
6,GGAGGCAUAUCUAGGCACUTT against Cdkn1a,inactive: -0.0739
7,CCUUUGUCCGGUCCAUUCCTT against Hk1,inactive: -0.331
8,GGAGGAGAAAAUCAAACCATT against 2810457M08Rik,inactive: -0.47
9,GGGACUCUAAAAACAAUGATT against Zfp99,inactive: -1.24
10,CCUAACCAAGAUCCAAUCUTT against 6330549D23Rik,inactive: -1.31
11,GGUUGCCAAAUACUGCUGUTT against Ppm1a,inactive: 2.31
12,GCAUUGAUGUGGUUAUAACTT against 1190005P17Rik,inactive: 0.496
13,GGCUGUCCUGGUCCAAUAUTT against Slc35a2,inactive: -0.343
14,CGAAGGGCAACGGUUCUCATT against Akr1b7,inactive: 1.53
15,GGCACAAGACCUUCAGCACTT against Olfr566,inactive: -0.647
16,GGCUUCAUGGUUCCCUGUATT against Rhox1,inactive: -2.39
17,CCAUCAACCAAUCAUACAGTT against Ddx26,inactive: 0.816
18,GGUUCUAUGACAGAAAUGATT against Rngtt,inactive: 1.2
19,CGUUUUUCUUAUGAUCAGGTT against B930093C12Rik,inactive: -0.248
20,GCAUGUUCGCACGUGUCAATT against 5330439B14Rik,inactive: 0.469
21,GGCCGUGUCGUACACUAUGTT against 6430598A04Rik,inactive: -0.118
22,GCCUUUCUCAUUCAGUCUCTT against V1rb10,inactive: 0.376
23,GGAUGUGGAGAACAGCUUCTT against Ppt1,inactive: -1.82

row,Sequence,z-score
1,GGCCCAACGACAUUUAUGUTT against Pop7,inactive: -0.271
2,GCUAGCUGUAAAACAUUGCTT against Nppc,inactive: -0.901
3,GGGCUGGAUUUUGAUGAUGTT against Arnt,inactive: 2.82
4,CGACCUCAGACUGAAGGACTT against Msr1,inactive: -1.62
5,CCUGGCUUACAGUACAUGCTT against Adarb1,inactive: -0.231
6,GGCUCUGAUGUUUCUAAAATT against Hdac10,inactive: 1.07
7,GGAAACAGCACCUUGUUGATT against Olfr205,inactive: -0.867
8,GGUCUGUUUGACAUUAUACTT against Pdha1,inactive: 0.684
9,GGUUGUUGUGACCUUCCUGTT against 2310022M17Rik,inactive: 0.125
10,GGAAAUCCUGAAGUUUCCUTT against Gprk5,inactive: 0.105
11,GGAGGUACAGAUAGAGACUTT against Tcl1b4,inactive: 1.7
12,GACAUGGACAUCUACACUATT against H2-Q8,inactive: -0.67
13,GCCUGAAAUGAAAGUUGCUTT against Olfr1136,inactive: 0.125
14,GGGUCAAGUUUACAGAUGATT against Luc7l,inactive: 0.715
15,CCAAACGAGGACUAAAAAUTT against Xcl1,inactive: 1.06
16,GGUCAAAAGACAAUGUGGATT against Git2,inactive: 0.0985
17,GCUCUCCAGCUAAAUGACCTT against Lsm3,inactive: 0.748
18,CAUCGUUGGAGCUAUAGAUTT against Olfr1098,inactive: -0.843
19,GGCUCAUCUCCUAUGACCUTT against Lipe,inactive: 1.44
20,GGCUGAGGUGGUUACAUUATT against 2010305A19Rik,inactive: 0.0832
21,GGAGUGUGUGCUUUUAAAATT against Rabggta,inactive: 0.378

# 2 entries drawn at random from the list so far, as already listed:
row,Sequence,z-score
2,GCUAGCUGUAAAACAUUGCTT against Nppc,inactive: -0.901
17,GCUCUCCAGCUAAAUGACCTT against Lsm3,inactive: 0.748
